Where two headings read alike, the source gives them in different places. Results are given in words; binding and its absence hold for the method and conditions named. In cells and extracts the contact can be indirect. Some results given as binding are weak or reduced against the parent protein; the word gives no strength. For some of these results: Where a sequence is shown, tags or fusion partners need not be part of it. Values belong to the molecule of their own block, whether it stands above or below them.
Legend:
Assay in all cases: co-IP
[1] = target: T1, Dsn1-6His-3Flag (S. cerevisiae) (UniProt P40568)
T1 sequence: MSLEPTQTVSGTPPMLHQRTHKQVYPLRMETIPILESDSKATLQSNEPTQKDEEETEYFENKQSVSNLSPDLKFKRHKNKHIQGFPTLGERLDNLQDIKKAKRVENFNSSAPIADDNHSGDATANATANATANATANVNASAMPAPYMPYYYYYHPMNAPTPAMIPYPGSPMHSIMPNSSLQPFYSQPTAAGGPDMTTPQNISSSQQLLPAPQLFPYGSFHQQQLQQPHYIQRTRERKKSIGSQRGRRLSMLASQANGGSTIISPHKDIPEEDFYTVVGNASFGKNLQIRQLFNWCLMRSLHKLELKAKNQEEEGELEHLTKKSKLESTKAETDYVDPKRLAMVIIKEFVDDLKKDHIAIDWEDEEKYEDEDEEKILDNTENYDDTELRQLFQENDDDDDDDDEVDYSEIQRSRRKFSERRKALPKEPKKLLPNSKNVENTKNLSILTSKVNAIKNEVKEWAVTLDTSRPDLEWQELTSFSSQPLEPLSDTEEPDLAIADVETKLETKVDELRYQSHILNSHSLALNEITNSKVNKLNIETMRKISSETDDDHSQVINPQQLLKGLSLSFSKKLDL

Amino acid sequences for entries named in this document (tags omitted).
UniProt Q04477: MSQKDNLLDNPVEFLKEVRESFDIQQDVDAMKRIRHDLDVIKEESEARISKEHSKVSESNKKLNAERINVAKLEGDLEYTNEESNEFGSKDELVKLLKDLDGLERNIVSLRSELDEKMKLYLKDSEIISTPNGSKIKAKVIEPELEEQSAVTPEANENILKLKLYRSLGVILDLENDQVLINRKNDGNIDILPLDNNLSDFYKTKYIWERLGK
UniProt P40460: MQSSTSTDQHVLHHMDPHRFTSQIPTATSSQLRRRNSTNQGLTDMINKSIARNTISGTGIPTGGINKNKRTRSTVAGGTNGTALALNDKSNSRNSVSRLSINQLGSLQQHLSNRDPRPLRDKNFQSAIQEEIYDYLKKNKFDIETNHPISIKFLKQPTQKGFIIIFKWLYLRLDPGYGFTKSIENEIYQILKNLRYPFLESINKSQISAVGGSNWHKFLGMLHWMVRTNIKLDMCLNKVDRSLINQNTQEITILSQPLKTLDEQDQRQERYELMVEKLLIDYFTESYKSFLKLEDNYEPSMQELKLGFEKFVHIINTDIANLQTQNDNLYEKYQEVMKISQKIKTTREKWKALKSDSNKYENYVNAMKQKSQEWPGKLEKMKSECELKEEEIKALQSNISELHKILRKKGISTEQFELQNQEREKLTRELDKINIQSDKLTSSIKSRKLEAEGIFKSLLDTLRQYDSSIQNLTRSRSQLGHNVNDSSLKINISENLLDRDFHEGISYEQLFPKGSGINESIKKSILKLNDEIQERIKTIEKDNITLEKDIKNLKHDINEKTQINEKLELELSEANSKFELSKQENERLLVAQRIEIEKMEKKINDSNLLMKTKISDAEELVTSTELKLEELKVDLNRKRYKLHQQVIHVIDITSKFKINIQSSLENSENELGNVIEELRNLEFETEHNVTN

[2] = target: Spc24-6His-3Flag (S. cerevisiae) (UniProt Q04477)
[3] = target: T1, Dsn1-6His-3Flag (S. cerevisiae); remark: listed apart in the source

binding [1]: binds
Molecule: Stu2^ccΔ::bZIP-3V5 (stu2(Δ658-761::GDGAGL linker-GCN4(249-281) bZIP-GDGAGL linker)-3V5) (from UniProt P46675;P03069)

binding [1]: binds
binding [2]: binds
Molecule: Ndc80 (from UniProt P40460 1-691)

binding [3]: binds
B1: Stu2^SK-richΔ-3V5 (stu2(Δ551-657::GDGAGL linker)-3V5) (domain or fragment, UniProt P46675)
chain: MSGEEEVDYTTLPLEERLTYKLWKARLEAYKELNQLFRNSVGDISRDDNIQIYWRDPTLFAQYITDSNVVAQEQAIVALNSLIDAFASSSLKNAHNITLISTWTPLLVEKGLTSSRATTKTQSMSCILSLCGLDTSITQSVELVIPFFEKKLPKLIAAAANCVYELMAAFGLTNVNVQTFLPELLKHVPQLAGHGDRNVRSQTMNLIVEIYKVTGNNSDLLEEILFKKLKPIQVKDLHKLFAKVGDEPSSSKMLFEWEKRELEKKRSQEEEARKRKSILSNDEGEYQIDKDGDTLMGMETDMPPSKQQSGVQIDTFSMLPEETILDKLPKDFQERITSSKWKDRVEALEEFWDSVLSQTKKLKSTSQNYSNLLGIYGHIIQKDANIQAVALAAQSVELICDKLKTPGFSKDYVSLVFTPLLDRTKEKKPSVIEAIRKALLTICKYYDPLASSGRNEDMLKDILEHMKHKTPQIRMECTQLFNASMKEEKDGYSTLQRYLKDEVVPIVIQIVNDTQPAIRTIGFESFAILIKIFGMNTFVKTLEHLDNLKRGDGAGLEKLIEEYKYRLQKLQNDEMIWTKERQSLLEKMNNTENYKIEMIKENEMLREQLKEAQSKLNEKNIQLRSKEIDVNKLSDRVLSLENELRNMEIELDRNKKRNDTNLQSMGTISSYSIPSSTVSSNYGVKSLSSALPFKEEEDVRRKEDVNYERRSSESIGDLPHRVNSLNIRPYRKNGTGVSSVSDDLDIDFNDSFASEESYKRAAAVTSTLKARIEKMKAKSRREGTTRT

binding [3]: no binding
B2: Stu2^C-termΔ(855-888)-3V5 (stu2(Δ855-888)-3V5) (domain or fragment, UniProt P46675 1-854)
chain: MSGEEEVDYTTLPLEERLTYKLWKARLEAYKELNQLFRNSVGDISRDDNIQIYWRDPTLFAQYITDSNVVAQEQAIVALNSLIDAFASSSLKNAHNITLISTWTPLLVEKGLTSSRATTKTQSMSCILSLCGLDTSITQSVELVIPFFEKKLPKLIAAAANCVYELMAAFGLTNVNVQTFLPELLKHVPQLAGHGDRNVRSQTMNLIVEIYKVTGNNSDLLEEILFKKLKPIQVKDLHKLFAKVGDEPSSSKMLFEWEKRELEKKRSQEEEARKRKSILSNDEGEYQIDKDGDTLMGMETDMPPSKQQSGVQIDTFSMLPEETILDKLPKDFQERITSSKWKDRVEALEEFWDSVLSQTKKLKSTSQNYSNLLGIYGHIIQKDANIQAVALAAQSVELICDKLKTPGFSKDYVSLVFTPLLDRTKEKKPSVIEAIRKALLTICKYYDPLASSGRNEDMLKDILEHMKHKTPQIRMECTQLFNASMKEEKDGYSTLQRYLKDEVVPIVIQIVNDTQPAIRTIGFESFAILIKIFGMNTFVKTLEHLDNLKRKKIEETVKTLPNFSIASGSTHSTIETNKQTGPMENKFLLKKSSVLPSKRVASSPLRNDNKSKVNPIGSVASASKPSMVAANNKSRVLLTSKSLATPKNVVANSTDKNEKLIEEYKYRLQKLQNDEMIWTKERQSLLEKMNNTENYKIEMIKENEMLREQLKEAQSKLNEKNIQLRSKEIDVNKLSDRVLSLENELRNMEIELDRNKKRNDTNLQSMGTISSYSIPSSTVSSNYGVKSLSSALPFKEEEDVRRKEDVNYERRSSESIGDLPHRVNSLNIRPYRKNGTGVSSVSDDLDIDFNDSFA

binding [3]: binds
B3: Stu2-3V5 (STU2^WT) (protein, UniProt P46675 1-888)
chain: MSGEEEVDYTTLPLEERLTYKLWKARLEAYKELNQLFRNSVGDISRDDNIQIYWRDPTLFAQYITDSNVVAQEQAIVALNSLIDAFASSSLKNAHNITLISTWTPLLVEKGLTSSRATTKTQSMSCILSLCGLDTSITQSVELVIPFFEKKLPKLIAAAANCVYELMAAFGLTNVNVQTFLPELLKHVPQLAGHGDRNVRSQTMNLIVEIYKVTGNNSDLLEEILFKKLKPIQVKDLHKLFAKVGDEPSSSKMLFEWEKRELEKKRSQEEEARKRKSILSNDEGEYQIDKDGDTLMGMETDMPPSKQQSGVQIDTFSMLPEETILDKLPKDFQERITSSKWKDRVEALEEFWDSVLSQTKKLKSTSQNYSNLLGIYGHIIQKDANIQAVALAAQSVELICDKLKTPGFSKDYVSLVFTPLLDRTKEKKPSVIEAIRKALLTICKYYDPLASSGRNEDMLKDILEHMKHKTPQIRMECTQLFNASMKEEKDGYSTLQRYLKDEVVPIVIQIVNDTQPAIRTIGFESFAILIKIFGMNTFVKTLEHLDNLKRKKIEETVKTLPNFSIASGSTHSTIETNKQTGPMENKFLLKKSSVLPSKRVASSPLRNDNKSKVNPIGSVASASKPSMVAANNKSRVLLTSKSLATPKNVVANSTDKNEKLIEEYKYRLQKLQNDEMIWTKERQSLLEKMNNTENYKIEMIKENEMLREQLKEAQSKLNEKNIQLRSKEIDVNKLSDRVLSLENELRNMEIELDRNKKRNDTNLQSMGTISSYSIPSSTVSSNYGVKSLSSALPFKEEEDVRRKEDVNYERRSSESIGDLPHRVNSLNIRPYRKNGTGVSSVSDDLDIDFNDSFASEESYKRAAAVTSTLKARIEKMKAKSRREGTTRT

binding [3]: no binding
B4: Stu2^ccΔ-3V5 (stu2(Δ658-761::GDGAGL linker)-3V5) (domain or fragment, UniProt P46675)
chain: MSGEEEVDYTTLPLEERLTYKLWKARLEAYKELNQLFRNSVGDISRDDNIQIYWRDPTLFAQYITDSNVVAQEQAIVALNSLIDAFASSSLKNAHNITLISTWTPLLVEKGLTSSRATTKTQSMSCILSLCGLDTSITQSVELVIPFFEKKLPKLIAAAANCVYELMAAFGLTNVNVQTFLPELLKHVPQLAGHGDRNVRSQTMNLIVEIYKVTGNNSDLLEEILFKKLKPIQVKDLHKLFAKVGDEPSSSKMLFEWEKRELEKKRSQEEEARKRKSILSNDEGEYQIDKDGDTLMGMETDMPPSKQQSGVQIDTFSMLPEETILDKLPKDFQERITSSKWKDRVEALEEFWDSVLSQTKKLKSTSQNYSNLLGIYGHIIQKDANIQAVALAAQSVELICDKLKTPGFSKDYVSLVFTPLLDRTKEKKPSVIEAIRKALLTICKYYDPLASSGRNEDMLKDILEHMKHKTPQIRMECTQLFNASMKEEKDGYSTLQRYLKDEVVPIVIQIVNDTQPAIRTIGFESFAILIKIFGMNTFVKTLEHLDNLKRKKIEETVKTLPNFSIASGSTHSTIETNKQTGPMENKFLLKKSSVLPSKRVASSPLRNDNKSKVNPIGSVASASKPSMVAANNKSRVLLTSKSLATPKNVVANSTDKNGDGAGLNLQSMGTISSYSIPSSTVSSNYGVKSLSSALPFKEEEDVRRKEDVNYERRSSESIGDLPHRVNSLNIRPYRKNGTGVSSVSDDLDIDFNDSFASEESYKRAAAVTSTLKARIEKMKAKSRREGTTRT
